Source: PMC4888081
These are yes or no findings as the source states them, for the method shown. Binding seen in cells or lysates may run through a third protein. Some binding calls cover weakened binding; strength is not graded here. Tags and fused reporters may be left off the sequences shown.

Sequences of proteins named here, by UniProt entry; tags and fusion partners are left off.
UniProt P59178: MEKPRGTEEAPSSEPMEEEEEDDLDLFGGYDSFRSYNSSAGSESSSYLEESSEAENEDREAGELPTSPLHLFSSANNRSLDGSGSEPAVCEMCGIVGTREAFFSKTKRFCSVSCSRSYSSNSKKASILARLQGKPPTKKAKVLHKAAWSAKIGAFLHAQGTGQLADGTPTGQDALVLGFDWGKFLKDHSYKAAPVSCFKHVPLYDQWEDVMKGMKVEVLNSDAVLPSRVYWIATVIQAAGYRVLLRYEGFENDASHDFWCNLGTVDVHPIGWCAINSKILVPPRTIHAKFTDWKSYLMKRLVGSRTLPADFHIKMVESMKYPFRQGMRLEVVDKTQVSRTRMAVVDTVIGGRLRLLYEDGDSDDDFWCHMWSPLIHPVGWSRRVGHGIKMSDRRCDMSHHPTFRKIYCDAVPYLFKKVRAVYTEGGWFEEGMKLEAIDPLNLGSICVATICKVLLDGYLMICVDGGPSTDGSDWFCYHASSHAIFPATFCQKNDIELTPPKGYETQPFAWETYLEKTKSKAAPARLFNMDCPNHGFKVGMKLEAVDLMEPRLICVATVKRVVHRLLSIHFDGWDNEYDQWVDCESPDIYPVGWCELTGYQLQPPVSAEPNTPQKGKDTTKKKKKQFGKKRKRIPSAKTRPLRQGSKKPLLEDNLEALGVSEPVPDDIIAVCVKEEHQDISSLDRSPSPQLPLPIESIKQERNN
UniProt Q9CQJ4: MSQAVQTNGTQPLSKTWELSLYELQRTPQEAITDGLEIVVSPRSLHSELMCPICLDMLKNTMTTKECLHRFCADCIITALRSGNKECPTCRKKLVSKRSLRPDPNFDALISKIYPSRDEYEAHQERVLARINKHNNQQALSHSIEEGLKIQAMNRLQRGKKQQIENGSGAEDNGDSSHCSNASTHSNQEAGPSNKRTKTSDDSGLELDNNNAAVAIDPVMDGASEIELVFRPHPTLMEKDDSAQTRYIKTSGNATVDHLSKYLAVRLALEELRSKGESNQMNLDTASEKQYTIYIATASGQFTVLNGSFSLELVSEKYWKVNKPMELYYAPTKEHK

Biological target: T1, HA-Pcgf6 (polycomb group ring finger 6) (UniProt Q99NA9)
T1 sequence: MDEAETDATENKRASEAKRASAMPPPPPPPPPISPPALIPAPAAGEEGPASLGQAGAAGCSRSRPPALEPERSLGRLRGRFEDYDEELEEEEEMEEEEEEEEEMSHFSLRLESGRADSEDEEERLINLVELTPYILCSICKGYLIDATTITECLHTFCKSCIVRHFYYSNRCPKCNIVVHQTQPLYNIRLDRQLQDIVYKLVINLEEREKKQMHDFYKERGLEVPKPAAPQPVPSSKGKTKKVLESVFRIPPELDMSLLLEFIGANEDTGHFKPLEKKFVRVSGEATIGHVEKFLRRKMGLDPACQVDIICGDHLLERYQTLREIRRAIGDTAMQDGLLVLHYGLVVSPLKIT
Experiment: co-IP; co-immunoprecipitation with Pcgf6 (Figure S4A,B); details not in the main text

In the case of L3mbtl2 (from UniProt P59178 1-703), the binding was “binds”.

Rnf2 (from UniProt Q9CQJ4 1-336) was tested, and the binding was “binds”.
